No constants are given. Whether binding was seen depends on the method and setting. Some entries that bind do so weakly or less than the wild type.
Experiments:
[1] = target: Msm Mpa/Mtb wild type proteasome CP complex (Mycobacterium smegmatis | Mycobacterium tuberculosis) (UniProt A0QZ54); experiment: NMR titration
[2] = target: Msm Mpa/Mtb wild type proteasome CP complex (Mycobacterium smegmatis | Mycobacterium tuberculosis) (UniProt A0QZ54); experiment: NMR titration; […]) for 16 h; […]
[3] = target: Mycobacterium smegmatis Mpa (mycobacterial proteasomal ATPase) (Mycobacterium smegmatis) (UniProt A0QZ54); experiment: NMR titration; […]) for 16 h; […]

Sequences of proteins named here, by UniProt entry; tags and fusion partners are left off.
UniProt A0QZ54: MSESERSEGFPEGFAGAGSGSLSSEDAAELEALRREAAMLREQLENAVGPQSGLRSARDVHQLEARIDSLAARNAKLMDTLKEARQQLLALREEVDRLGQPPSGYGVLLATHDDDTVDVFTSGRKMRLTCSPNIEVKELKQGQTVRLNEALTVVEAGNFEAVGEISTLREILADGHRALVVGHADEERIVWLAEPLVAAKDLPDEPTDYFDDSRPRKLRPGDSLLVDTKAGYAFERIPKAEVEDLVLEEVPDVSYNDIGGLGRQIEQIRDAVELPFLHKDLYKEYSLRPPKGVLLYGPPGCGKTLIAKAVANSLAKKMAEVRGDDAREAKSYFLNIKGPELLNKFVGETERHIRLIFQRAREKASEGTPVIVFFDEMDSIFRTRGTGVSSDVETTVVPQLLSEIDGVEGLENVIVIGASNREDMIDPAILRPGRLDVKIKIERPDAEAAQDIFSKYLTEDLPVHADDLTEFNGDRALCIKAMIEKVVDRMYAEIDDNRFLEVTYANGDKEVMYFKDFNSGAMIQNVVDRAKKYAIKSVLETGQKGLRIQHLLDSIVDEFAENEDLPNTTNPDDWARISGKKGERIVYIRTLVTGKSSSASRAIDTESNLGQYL
UniProt P9WHN5: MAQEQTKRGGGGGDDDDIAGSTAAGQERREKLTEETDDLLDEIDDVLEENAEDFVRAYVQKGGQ

**Q.** Which binding [1] does the source give for “Pup-GGQ (prokaryotic ubiquitin-like protein, precursor form with C-terminal glutamine) (from UniProt P9WHN5 1-64)” here?
**A.** The binding was “binds”.

**Q.** And the binding [2]?
**A.** Its binding is “binds”.

**Q.** What about the binding [3] of the same substance?
**A.** The binding was “binds weakly”.

— article PMC3769308
